# Values joined by “and” are separate entries in the source; they are usually repeats but may differ in a detail not shown here. Identical values can stand only once. Among all 110,000 compounds or so, about 20 (0.02%) were called active. Inconclusive results (about 2%) are left out. The call rests on the fitted dose curve; in most records, active means well fitted activation curve with a large enough effect; inconclusive means small, poorly fitted or top-dose-only effect; inactive means no such curve, though single readings can be large or run the other way. Only a part is listed here, and it is no random draw. The source gives no active or inactive call for entries shown without one.
# Assay: qHTS Assay for Compounds that Induce Erasure of Genomic Imprints;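 on activity change, positive = activation: 0% = negative control wells on the plate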
# Settings: mouse ES Peg3-LacZ reporter, beta-gal luminescence, 40 h; activity change, positive = activation: at 60.7 µM (top of the series)
# Description: qHTS Assay for Compounds that Induce Erasure of Genomic Imprints NIH Chemical Genomics Center [NCGC] NIH Molecular Libraries Screening Centers Network [MLSCN] Assay Submitter (PI): JEFFRIES, SEAN, NCGC, University of Cambridge NCGC Peg3 Imprinting Assay Overview Genomic imprinting is the epigenetic process whereby genes are expressed in a parent of origin fashion. […] Unlike some forms of epigenetic silencing that can be overcome by overexpression of transcription factors, genomic imprinting stably represses the expression of one allele despite potentially high levels of expression from the other allele. […] During mouse embryonic day 11.5 imprints are erased in PGCs so that sex specific imprints can be reestablished during gametogenesis. Embryonic germ (EG) cells can be derived from developing PGCs at embryonic day 11.5 and these cells often lack genomic imprints. […] Embryonic stem (ES) cells are a cell type similar to EG cells in phenotype and transcriptional profile, yet ES cells maintain genomic imprints. This similarity between ES and EG cells prompted us to use ES cells to look for factors which could induce imprint erasure. To investigate the stability of genomic imprinting, ES cells were derived from mice with an insertion of a LacZ-Neomycin reporter construct in the Peg3 locus. Peg3 is an imprinted locus where gene expression is restricted to the paternal allele. […] Using LacZ expression we are able to monitor the state of the Peg3 imprint. In order to dissect the mechanisms involved in imprint erasure using a forward chemical genetics approach we developed a cell based phenotype assay using an endogenous silence imprinted locus. This assay utilizes maternally inherited Peg3LacZ-Neo ES cells by monitoring the LacZ expression from the normally silent Peg3 allele. To facilitate screening, high-density feeder-free ES cell culture has been optimized so that ES cells can be grown in 1536 for over four days without feeding or washes. The assay uses a luminescence based read out for LacZ activity and is a homogenous assay optimal for HTS.
# NCGC Peg3 Imprinting Assay Protocol Summary ES cell lines were derived from blastocysts taken from Peg3LacZ-Neo x129 matings. Lines were sexed and genotyped for the Peg3LacZ-Neo allele. Female cells carrying the reporter allele were used in this study. Cells were derived on a layer of mouse embryonic fibroblasts and passaged multiple times before switching to feeder free culture. Cells were maintained feeder free on gelatin coated dishes in DMEM/F12 media supplemented with 15% FBS, 2mM L-glutamine, 100 units/ml penicillin, 100ug/ml streptomycin, 0.1mM MEM nonessential amino acids, 1mM sodium pyruvate, 0.1% sodium bicarbonate, 0.1mM 2-Mercaptoethanol, and 400 units/ml leukemia inhibitory factor (LIF) at 37C with 5% CO2. The assay was performed in 1536-well format. A single luminescence read was taken at the end of the assay and the data was normalized by plate to internal negative controls. Maximum efficacy and AC50 values were calculated from dose-response data using the standard Hill equation. 1536 well plates were filled with 0.5ul of 0.1% gelatin per well, spun down and incubated for at least 30 min at 37C. The ES cells were then trypsini Peg3 1536-well assay protocol: (1)Plate 0.5ul/well 0.1% gelatin in white tissue culture treated 1536-well plates, spin and incubate at 37C for at least 30 min. (2)Add 5ul/well (300 cells) of ES cell suspension from freshly trypsinized cells and incubate at 37C, 5% CO2 for 40 hours. (3)Add 5ul/well of freshly prepared BetaGlo solution and incubate at room temperature for 5 minutes. (4)Read luminescence on the ViewLux plate reader. Keywords Genomic Imprinting, Germ Cells, Embryonic Stem Cell, DNA Methylation, Peg3, qHTS, NIH roadmap, NCGC
# Potency means the concentration at half of the fitted maximal effect.
SMILES,Potency,"activity change, positive = activation"
CNc1nc(-c2cccc(C#N)c2)nc2ccccc12,active: 1.26 µM,
C=CCN1C(=O)C2C(C(=O)NCc3ccccc3)C3(C)C=CC2(O3)C1C(=O)NC(C)(C)C (stereo unspecified),active: 10 µM,
CCCOC(=O)NC1C(NC(=O)OCCC)N(C)C(=O)N1C (stereo unspecified),,-3.61%
COc1ccc(C(C)=O)cc1COC(=O)c1cnc(C)cn1,active: 15.8 µM,
Cc1cc(NC(=O)CSc2nnc(-c3ccoc3C)o2)no1,,-51.2%
C=CCNc1nc(N)c(C(=O)Nc2cc(C)on2)s1,,-44.5%
CCOc1ccc(-n2c(Cc3cc(=O)[nH]c(=O)[nH]3)nnc2SC(C)C)cc1,,33.2%
COC(=O)/C(=C1\OC(=O)C(c2ccccc2)C1=O)c1ccccc1 (stereo unspecified),,-79.8%
COc1ccc(-c2nc3cnc(N4CCNCC4)nc3n(Cc3cccs3)c2=O)cc1,,inactive: -50.4%
COc1ccc(CNc2nc(-c3ccccc3OC)nc3ccccc23)c(OC)c1,,-39.8%
Cc1cccc(CNc2nc(-c3ccc(C(=O)N(C)C)cc3)nc3ccccc23)c1,,-32.6%
O=C(Nc1nc2c(s1)CCCC2)C1COc2ccccc2O1 (stereo unspecified),,inactive: -57.2%
COc1ccc2c(c1)Cc1sc(NC(C)=O)nc1-2,,inactive: -57.3%
COc1ccc(-c2nc3ccccc3s2)cc1O,,-91.1%
OC[C@H]1O[C@@H](n2cnc3cncnc32)[C@H](O)[C@@H]1O,,-39.3%
FC(F)(F)c1ccccc1-c1nc(Nc2ccncc2)c2ccccc2n1,,-34.3%
N#Cc1cccc(-c2nc(NCc3cccs3)c3ccccc3n2)c1,active: 6.31 µM,
CCOCCCNc1ncc2c(n1)CC(c1ccc(C)cc1)CC2=O (stereo unspecified),,34.7%
Cc1cc(C)n(-c2nc3c(c(=O)n(Cc4ccc(Cl)c(Cl)c4)c(=O)n3C)n2C)n1,,31.4%
C[C@@H]1OC(OC2CC[C@@]3(C)C(CC[C@@]4(C)C3CC=C3C5CC(C)(C)CC[C@]5(C(=O)OC5OCC(O)[C@@H](O)[C@@H]5OC5O[C@@H](C)[C@H](O[C@H]6OC(CO)C(O)C(O)C6O)C(O)C5O)C(O)C[C@@]34C)C2(C)C)C(O)C(O)[C@H]1OC1OCC(O)C(O)[C@H]1O (stereo partly specified),,-31.7%
CC(C)C(=O)Nc1ccc(NC(=O)c2ccccn2)cn1,,inactive: -84%

SMILES,Potency,"activity change, positive = activation"
CN(C)c1ccc(-c2nc(Nc3ccncc3)c3ccccc3n2)cc1,,-45.5%
Oc1ccc(O)cc1,active: 12.6 µM and active: 10 µM,
CN(Cc1ccco1)c1ncnc2ccc(-c3cccnc3)cc12,,-53.1%
CCN(CC)c1ccc(NC(=O)c2cncc(Br)c2)cc1,,-31.6%
CCOCCn1c(CN2CCN(c3ccc(F)cc3)CC2)nc2c1c(=O)n(C)c(=O)n2C,,32.4%
Cc1ccc(-n2c(C)cc(C3N=C(N)Nc4nc5ccccc5n43)c2C)c(C)c1 (stereo unspecified),,inactive: -52%
Cc1nc2cnc(Nc3ccccc3)nc2n(Cc2ccc(F)cc2)c1=O,active: 3.16 µM,
CCN1C(=O)CC(N2CCC(Nc3ccc(F)cc3)CC2)C1=O (stereo unspecified),,40.1%
COc1cccc(-c2nc(Nc3ccncc3)c3ccccc3n2)c1,,-36.6%
CCC(=O)Nc1cnc(NC(=O)c2cccc(F)c2)cc1C,,11.9%
Cc1ccc2nc(NC(=O)c3cccs3)sc2c1,,-86.2%
O=C(Nc1ccc(-c2nc3ccccc3o2)cc1)C1CCCO1 (stereo unspecified),,-76.8%
Nc1nc(Cl)nc2c1ncn2[C@H]1C[C@H](O)[C@@H](CO)O1,,-36%
COc1ccc(Cn2c3nc4ccccc4nc3c3c(=O)n(Cc4ccco4)c(C)nc32)cc1,,inactive: -32.1%
CCOc1ccccc1NC(=O)c1cccc(NC(=O)c2ccco2)c1,,-36.6%
CN(C)C(=O)c1ccc(NC(=O)c2cncc(Br)c2)cc1,,-82.6%
Clc1ccccc1-c1ccc2ncnc(N3CCNCC3)c2c1,active: 10 µM,
O=c1c2ccccc2nnn1CSc1nnc2ccccn12,,-69.2%
O=c1cc(-c2ccccc2O)oc2cc(O)ccc12,,-60.7%
Cc1cnc(CNc2nc(-c3ccc(N(C)C)cc3)nc3ccccc23)cn1,,-40%

# — PubChem BioAssay AID1948 (National Center for Advancing Translational Sciences (NCATS), 2009)
